From PubChem BioAssay AID2685 (National Center for Advancing Translational Sciences (NCATS), 2010)
The whole screen tested about 320,000 compounds, of which about 2,100 (0.66%) were called active. Calls come from the whole dose curve; as a rule, active = well fitted inhibition curve with a large enough effect in the signal ratio, with a control signal flat (not every such curve was filed as active); inconclusive = small, poorly fitted or top-dose-only effect, or effect the other way, or a change in a side signal; inactive = flat fitted curve, though single readings scatter; the % refers to the signal ratio. The inconclusive results got no clear call from the source. Potencies of inconclusive entries are doubtful fits and often do not repeat.

Test: qHTS Assay for Lipid Storage Modulators in Drosophila S3 Cells
Conditions: BODIPY lipid droplet fluorescence, 18-24 h, cells fed with added oleic acid; lipid storage change, negative = inhibition: at 46.1 µM (top of the series) unless noted
Procedure, shortened: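 Laser-scanning cytometry quantifies lipid droplet accumulation (500–530 nm total intensity; droplet/cell object ratio) in oleic acid-fed (400 uM added) Drosophila S3 cells treated with a concentration series. 20 uM Triacsin C defined 100% inhibition.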
% is set by controls: 0 for no effect and ±100 for the full control effect; potency is the fitted concentration of half-maximal effect.

Structure (SMILES) | lipid storage change, negative = inhibition | Potency
CCC1SC(=Nc2cccc(C)c2)NC1=O (stereo not drawn) | inconclusive: 28.1% | –
COc1ccc(NC(=O)[C@@H](NC(=O)c2ccccc2F)C(C)C)cc1S(=O)(=O)N1CCOCC1 | inconclusive: 38.4% | –
COc1ccc(N2CC(NS(=O)(=O)c3ccc4ccccc4c3)CC2=O)cc1OC (stereo not drawn) | – | inconclusive: 9.2 µM [rising, partial curve]
CC1CCN(CC(=O)Nc2ccc(Br)cc2[N+](=O)[O-])CC1 | inconclusive: 32.8% [at 0.00295 µM] | –
CC(NC(=O)c1cccc2ccccc12)c1ccc2c(c1)CCCC2 (stereo not drawn) | – | inconclusive: 13 µM [falling, partial curve, poor fit]
NCCSC1CC(=O)N(Cc2ccc(F)cc2)C1=O (stereo not drawn) | inconclusive: 45.2% | –
CN(CCCC(=O)NCc1ccco1)S(=O)(=O)c1ccccc1 | inconclusive: -16.5% | –
O=C(O)c1ccc(NC(=O)c2cn(-c3ccccc3)nc2-c2ccccc2)cc1 | inconclusive: 83.6% | –
CCC1(C(=O)c2ccc(Cl)cc2)C2c3ccccc3OC(=O)C21C(=O)Nc1ccccc1 (stereo not drawn) | – | inconclusive: 25.9 µM [cytotoxic, partial curve]
Cc1ccc(S(=O)(=O)N2CCC(C(=O)Nc3ccncc3)CC2)cc1 | – | inconclusive: 6.51 µM [rising, single point]
Cc1ccc(/C=C(/C#N)C(=O)NC(C)c2ccccc2)o1 (stereo not drawn) | inconclusive: -31.3% | –
Cc1ccc(S(=O)(=O)N(C)Cc2ccccc2)cc1C(=O)N1CCCCC1 | – | inconclusive: 25.9 µM [falling, single point]
CCN(Cc1ccc(OC)c(F)c1)C(=O)c1oc2ccccc2c1COC | – | inconclusive: 29.1 µM [falling, single point]
Cc1ccc(S(=O)(=O)Nc2c(C)nc3nc(C)[nH]n3c2=O)c(C)c1 | inconclusive: -15.7% | –
CCOC(=O)c1oc2ccccc2c1NC(=O)c1cccc(OC)c1 | inconclusive: -38.2% | –
Cc1ccc(SCCC(=O)NCCSCc2ccco2)cc1 | inconclusive: 14.5% | –
COc1ccc(OC)c(NC(=O)Nc2cccnc2)c1 | inconclusive: 90.2% | –
O=C(O)C1CSC(c2ccccc2Cl)N1C(=O)c1ccc(Cl)cc1 (stereo not drawn) | inconclusive: -4.92% | –
Cc1ccc(C(=O)OCn2ncc(Cl)c(Cl)c2=O)cc1 | – | inconclusive: 4.11 µM [falling, full curve]

Structure (SMILES) | lipid storage change, negative = inhibition | Potency
CN(C)S(=O)(=O)c1ccc(NC(=O)Cc2ccc(S(=O)(=O)N3CCOCC3)s2)cc1 | inconclusive: -17.4% | –
CN1C(C(=O)NCc2ccccc2)CC2Cn3c(nc4cc5ccccc5cc43)C21 (stereo not drawn) | inconclusive: 15% | –
CC(=O)N1CCc2cc(S(=O)(=O)CCC(=O)N3CCN(c4ccccc4F)CC3)ccc21 | inconclusive: 57.3% | –
O=C1NC(=Nc2ccc(Cl)cc2)SC1Cc1cc(Cl)ccc1Cl (stereo not drawn) | inconclusive: 17.9% | –
CN(C)S(=O)(=O)c1ccc(NC(=S)NC(=O)C2CCC2)cc1 | inconclusive: 19.3% | –
CCOC(=O)c1ccc(NC(=O)c2ccccc2C)cc1 | inconclusive: 1.05% | –
CC(OC(=O)C1CC1C)C(=O)Nc1ncc(Cl)cc1Cl (stereo not drawn) | inconclusive: 24.6% | –
CCOc1ccc(NC(=O)CSc2nnc(Cc3cccn3C)n2-c2ccc(F)cc2)cc1 | inconclusive: 30.8% | –
Cc1ccc(NC(=S)NCCSc2ccc(Cl)cc2)c(C)c1 | inconclusive: -70.1% | –
CC(=O)c1csc(-c2ccccc2)n1 | inconclusive: -9.25% [cytotoxic] | –
O=C(CSc1nc(=O)n(CCN2CCOCC2)c2c1CCCC2)Nc1cccc([N+](=O)[O-])c1 | – | inconclusive: 5.17 µM [falling, full curve]
CCOc1ccc(-c2nc(-c3ccc(OC)c(OC)c3)no2)cc1OCC | inconclusive: -83.9% | –
CCc1csc(CCNC(=O)C2CCC(=O)N(CCOC)C2)n1 (stereo not drawn) | – | inconclusive: 0.206 µM [activator, full curve, poor fit]
COc1ccccc1C(=O)Nc1cccc(S(=O)(=O)N2CCCC2)c1 | inconclusive: 10.3% | –
O=C(Nc1ccc(F)cc1)OCCN1CCN(Cc2ccccc2)CCC1=O | inconclusive: -2.56% | –
Cc1ccsc1/C=C1\Oc2cc(OCC(=O)c3ccccc3)ccc2C1=O | – | inconclusive: 0.58 µM [activator, full curve]
Cc1ccccc1C(C(=O)NC1CCCCC1)N(C(=O)CNC(=O)c1ccco1)c1cccnc1 (stereo not drawn) | inconclusive: 30.8% | –
COc1ccc(C(=O)CCC(=O)Nc2cccnc2)cc1OC | – | inconclusive: 29.1 µM [activator, single point]
COc1ccc(C(=O)CCNc2ccc(C)c(Cl)c2)cc1 | – | inconclusive: 16.4 µM [activator, single point]

Record cards (already shown). Values in the order: lipid storage change, negative = inhibition | Potency
CCc1csc(CCNC(=O)C2CCC(=O)N(CCOC)C2)n1 (stereo not drawn) as listed: – | inconclusive: 0.206 µM [activator, full curve, poor fit]
COc1ccc(N2CC(NS(=O)(=O)c3ccc4ccccc4c3)CC2=O)cc1OC (stereo not drawn) as listed: – | inconclusive: 9.2 µM [rising, partial curve]
COc1ccccc1C(=O)Nc1cccc(S(=O)(=O)N2CCCC2)c1 as listed: inconclusive: 10.3% | –
